From publication PMC8864220, “Transcriptional Regulation of the Creatine Utilization Genes of Corynebacterium glutamicum ATCC 14067 by AmtR, a Central Nitrogen Regulator”
Where a chain is given by its changes, count along the chain named. The exact form of at least one protein or probe is not confirmed. For part of these data: No signal at the amounts used counts as a negative. Protein sequences can lack the tags named with them. For part of these data: Weaker means in comparison with the reference protein, sequence or condition of that experiment. For part of these data: At least one verdict was read from the data and is not stated in words by the source.

How the values were obtained:
[1] = molecular target: T1, AmtR (Corynebacterium glutamicum ATCC 14067) (UniProt H7C699); assay: EMSA; conditions: 20 ul: 10 mM Tris pH 7.0, 50 mM KCl, 1 mM DTT, 10 mM EDTA, 2.5% glycerol, 0.05% NP-40, 50 ng/ul poly(dIdC), 100 ng DNA, 0-0.8 ug AmtR, recombinant …, protein details: C-terminal His6, probe letters rebuilt from the primers and the genome
T1 sequence (looked up, limits assumed): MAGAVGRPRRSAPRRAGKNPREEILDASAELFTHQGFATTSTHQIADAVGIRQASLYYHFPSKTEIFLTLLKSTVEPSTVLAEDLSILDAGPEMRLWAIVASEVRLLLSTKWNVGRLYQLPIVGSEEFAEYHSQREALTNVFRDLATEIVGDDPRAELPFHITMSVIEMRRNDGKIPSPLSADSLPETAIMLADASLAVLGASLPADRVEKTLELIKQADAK

[2] = molecular target: T2, AmtR (Corynebacterium glutamicum ATCC 14067) (UniProt H7C699); assay: EMSA; conditions: 20 ul: 10 mM Tris pH 7.0, 50 mM KCl, 1 mM DTT, 10 mM EDTA, 2.5% glycerol, 0.05% NP-40, 50 ng/ul poly(dIdC), 100 ng DNA, 0-0.8 ug AmtR, protein details: C-terminal His6
T2 sequence (looked up, limits assumed): T1 sequence (looked up, limits assumed) with H34R, I87T, S203P

CGGTGTCATCGCCAGCGATGGTGCCAACGACTTCTTTCAGCCCCACCCTATCGATGAAACTTGCCAGGTACTGGGCAGCTCCCGGCGGGGTGCGCAGCATCGCGATGTTGCCGGAATGATCTGTAGAAACCAGCAGTTCATCAAGCATGCGGCGCAGCTTCTCCGACGGACCCCGGAGATCTTCGCGGGCGATGCTATCTACTGGGCCGACCGCGTAGTAGGCGCGTCCCCCATCGGGGCGAACCTTGCGTGCACCGAGTTCATCGAGATCCCGGGACAAGGTGGCCTGGGTGATATCGATGCCTTCATCCAGCAGCAATTCAGACAGTTGTACCTGGCTGGTGACTTTTTGTTTGTCCAAAATCTGCAAAATGAGAGCTTGGCGTGCAGTGCGAGTC (double strand) [argR-EMSA]
binding result [1]: no binding

GATTTTGCAAGTTTCTATAGATTGATAGAAAAAGGAGTTTAG (double strand) [EMSA-PC (amtA promoter)]
binding result ([2]; positive control, recombinant protein): binds

GTTGCGCTATAGAAAAAGCGTCGGAGACCGACTATGTTCAGA (double strand) [PhyuB-3]
binding result ([2]; recombinant …): binds more weakly
